## Primary screen of a compound library

By UniProt entry, the sequences of proteins in these tests, tags left out.
UniProt P9WNZ1, whole entry: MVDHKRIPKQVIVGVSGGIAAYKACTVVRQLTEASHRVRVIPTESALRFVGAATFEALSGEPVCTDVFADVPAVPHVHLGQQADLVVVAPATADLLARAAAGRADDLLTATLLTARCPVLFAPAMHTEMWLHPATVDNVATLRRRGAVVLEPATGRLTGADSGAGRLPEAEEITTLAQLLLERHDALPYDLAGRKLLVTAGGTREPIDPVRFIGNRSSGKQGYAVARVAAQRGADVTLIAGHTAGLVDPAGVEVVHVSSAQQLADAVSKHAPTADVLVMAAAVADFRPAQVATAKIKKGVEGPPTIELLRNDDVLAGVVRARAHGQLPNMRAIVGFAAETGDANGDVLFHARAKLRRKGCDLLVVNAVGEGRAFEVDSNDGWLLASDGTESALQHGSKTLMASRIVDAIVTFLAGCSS

From ChEMBL document CHEMBL3988442, “University of Dundee, Small-Polar-MMV Screening Library” (2021).

Leishmania in macrophages: 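Cell assay of Leishmania donovani living inside macrophages; the read-out is not stated. Tested at 30 µM. The record gives no direction; compounds that gave an IC50 in retests scored well above the rest, so higher reads as stronger inhibition. About 69,000 compounds were tested under these conditions; 1.5% (about 1,000) showed 50% or more at least once.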
CoaBC: 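Enzyme assay of CoaBC with a phosphate dye (Biomol Green) read at 650 nm. Target: Coenzyme A biosynthesis protein CoaBC, Mycobacterium tuberculosis (UniProt P9WNZ1). Compounds at 30 µM. Higher reads as stronger inhibition, judged from the few compounds that gave an IC50. Most strong results did not repeat in a second test. About 67,000 compounds were tested under these conditions; 0.06% (about 40) showed 50% or more at least once.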

The filed quantity is “Percent Effect” (%). The controls that fix the scale are not given in the record; negative values are as filed. This is an unselected part of the compounds tested. Two or more numbers in one place are separate tests of the same structure; such repeats can differ widely. A dash means the value is not listed here; it may have been measured.

| # | structure | Leishmania in macrophages | CoaBC |
|---|---|---|---|
| 1 | `CC(=O)N[C@@H](CC(C)C)C(=O)N1CCC(n2cc(CC(C)C)nn2)CC1` | 5.799 | -11.16 |
| 2 | `Cc1cc(C(=O)NCC(O)c2ccc(Cl)s2)c(C)o1` (centres unmarked) | 16.66 | -0.9828 |
| 3 | `Cc1ccc(OCCNC(=O)C(C)n2cncn2)cc1` (centres unmarked) | -9.466 | 0.2571 |
| 4 | `O=C(NCc1ccco1)[C@H]1COC[C@H]2CN(Cc3ccccn3)C[C@H]21` | - | 3 |
| 5 | `Cn1ccnc1CN1CCOC(C)(C(=O)N2CCOCC2)C1` (centres unmarked) | 24.99 and 17.46 | -0.2421 |
| 6 | `COc1ccc(F)c(CN2CCCC3(CCN(C(=O)CSC)C3)C2)c1` (centres unmarked) | -11.19 | 3.426 |
| 7 | `CCOCc1nn(CC2CC2)c2c1CN(Cc1cccs1)CC2` | - | 2.97 |
| 8 | `O=C(O)C(F)(F)F.O=C(O)C(F)(F)F.[H][C@@]12OCCN(Cc3ccc(F)cc3)[C@@]1([H])CC[C@H]2OCCN1CCCC1` | 19.83 | - |
| 9 | `Cc1c[nH]nc1C1CCN(C(=O)CC2CCCC2)C1` (centres unmarked) | 19.61 | 8.392 |
| 10 | `Cc1cc(NC(=O)CN2CCn3c(nnc3C3CC3)C2)no1` | 15.8 | 0.6479 |
| 11 | `OCC1(CC2CC2)CCCN(Cc2cnc(C3CCCCC3)nc2)C1` (centres unmarked) | 35.64 | -1.739 |
| 12 | `COc1cc(CNC(=O)C(C)SC)cc(Br)c1OC` (centres unmarked) | 15.35 | 1.124 |
| 13 | `CC(=O)N1CCN(Cc2ccsc2)CC2(CC(=O)N(C)C2)C1` (centres unmarked) | - | 6.588 |
| 14 | `O=C(Cc1cccs1)N1CCc2nnc(COc3cncnc3)n2CC1` | 3.854 | -8.75 |
| 15 | `CC(C)Oc1ncnc2c1CCN(Cc1cccs1)CC2` | 1.225 | 4.442 |
| 16 | `CC(C)(CNC(=O)Nc1nccs1)N1CCOCC1` | 17.55 | 6.951 |
| 17 | `O=C(O)C(F)(F)F.[H][C@]12CCN(C(=O)CC3CC3)[C@@]1([H])CC[C@H](COCc1cccc(C)n1)O2` | -24.71 | - |
| 18 | `Cc1nc(NC(=O)C(C)N(C)Cc2cccc(C#N)c2)sc1C` (centres unmarked) | -18.76 | -4.551 |
| 19 | `CSc1cc2c(cc1NC(=O)NCc1ccncc1)OCCO2` | 2.285 | 8.293 |
| 20 | `c1ccc(-c2ccc(C3CNCCO3)nc2)cc1` (centres unmarked) | - | 3.534 |
| 21 | `COc1ccccc1CNC(=O)N1CCCC(NS(C)(=O)=O)C1` (centres unmarked) | -10.5 | 3.59 |
| 22 | `Cn1ncc2c(=O)[nH]c(CN3CCCC3Cc3ccccc3)nc21` (centres unmarked) | 5.909 | 12.52 |
| 23 | `CC(C)Cc1nc(CN2CCCC2Cn2cncn2)no1` (centres unmarked) | 7.258 | 2.408 |
| 24 | `O=C1NCC[C@]12CN(Cc1cccnc1)C[C@H]2c1ccccc1` | - | 5.011 |
| 25 | `CCOC(C)c1nc(CN2CCC(NC(C)C)CC2)cs1` (centres unmarked) | 19.95 | 1.711 |
| 26 | `Cc1nc2cc(O)nn2c(C)c1CCC(=O)NCc1cc(Br)cs1` | 24.99 | 6.581 |
| 27 | `Cc1ccc(C#N)c(N2CCC3(CCC(=O)N(CC(N)=O)C3)CC2)n1` | -2.04 | 2.046 |
| 28 | `Cc1ccc(-n2nnc(C(=O)NC(C)C)c2C2CC2)cc1` | 26.71 | 3.704 |
| 29 | `Cc1ccc(-c2ccnc(NC(C)c3n[nH]c(=O)[nH]3)n2)c(C)n1` (centres unmarked) | 20.23 | 8.351 |
| 30 | `COCCN(CC(N)=O)CC1CCCN(C2Cc3ccccc3C2)C1` (centres unmarked) | 19.89 | -5.703 |
| 31 | `Cn1c(CN2CCCCCC2)cc(=O)c(O)c1CN1CCCC1` | -53.67 | 0.2421 |
| 32 | `c1ccc(CN2CCC(NCCSc3cnn[nH]3)C2)cc1` (centres unmarked) | 17.6 | 0.2558 |
| 33 | `COc1cc(Oc2ncccc2C(F)(F)F)ccc1CN1CCCC1` | 0.7615 | -0.6211 |
| 34 | `CN1CCC(N2CCCC(C(=O)N3Cc4ccccc4C3)C2)CC1` (centres unmarked) | 10.37 | -14.38 |
| 35 | `CN(C)C(=O)COC[C@]12COC[C@H]1CN(CCc1ccccc1)C2` | - | -4.198 |
| 36 | `CN(C)CC(=O)NC1CC(=O)N(CCc2ccccc2)C1` (centres unmarked) | 21.49 | 5.369 |
| 37 | `CN(CC1Cc2ccccc2CN1C)C(=O)CSc1ccccn1` (centres unmarked) | 18.72 | 2.733 |
| 38 | `Cn1ccnc(Sc2ccc(O)cc2)c1=O` | 34.83 | 6.615 |
| 39 | `Cc1c(CN2CCCC(C(=O)CCc3ccccc3)C2)cc(C#N)n1C` (centres unmarked) | -2.04 | -14.53 |
| 40 | `Cl.Cn1cc(CN2CCN(CC3(c4ccccc4)CC3)CC2)cn1` | 14.58 | - |
| 41 | `CC(=O)c1cccc(OCCCC(=O)N(C)CC(N)=O)c1` | 31.15 | 5.769 |
| 42 | `COCC(=O)N1CCCC1c1cccc(Cc2ccccc2F)n1` (centres unmarked) | -0.719 | 1.961 |

Some entries from above, unchanged:

structure,Leishmania in macrophages,CoaBC
Cc1nc(NC(=O)C(C)N(C)Cc2cccc(C#N)c2)sc1C (centres unmarked),-18.76,-4.551
O=C(O)C(F)(F)F.[H][C@]12CCN(C(=O)CC3CC3)[C@@]1([H])CC[C@H](COCc1cccc(C)n1)O2,-24.71,-
COCCN(CC(N)=O)CC1CCCN(C2Cc3ccccc3C2)C1 (centres unmarked),19.89,-5.703